Experimental findings from patent US12729225B2, “Non-canonical SWI/SNF complex and uses thereof” (Dana-Farber Cancer Institute, Inc., priority 2018, dated 2026) are described below.

To fix the notation:
B1: ARL6IP4 (protein, UniProt Q66PJ3 1-237, looked up)
ADP-ribosylation factor-like …: MAHVGSRKRSRSRSRSRGRGSEKRKKKSRKDTSRNCSASTSQGRKASTAPGAEASPSPCITERSKQKARRRTRSSSSSSSSSSSSSSSSSSSSSSSSSDGRKKRGKYKDKRRKKKKKRKKLKKKGKEKAEAQQVEALPGPSLDQWHRSAGEEEDGPVLTDEQKSRIQAMKPMTKEEWDARQSIIRKVVDPETGRTRLIKGDGEVLEEIVTKERHREINKQATRGDCLAFQMRAGLLP
B2: SRPRB (protein, UniProt Q9Y5M8 1-271, looked up)
Signal recognition particle …: MASADSRRVADGGGAGGTFQPYLDTLRQELQQTDPTLLSVVVAVLAVLLTLVFWKLIRSRRSSQRAVLLVGLCDSGKTLLFVRLLTGLYRDTQTSITDSCAVYRVNNNRGNSLTLIDLPGHESLRLQFLERFKSSARAIVFVVDSAAFQREVKDVAEFLYQVLIDSMGLKNTPSFLIACNKQDIAMAKSAKLIQQQLEKELNTLRVTRSAAPSTLDSSSTAPAQLGKKGKEFEFSQLPLKVEFLECSAKGGRGDVGSADIQDLEKWLAKIA
B3: SYNCRIP (protein, UniProt O60506 2-623, looked up)
Heterogeneous nuclear …: ATEHVNGNGTEEPMDTTSAVIHSENFQTLLDAGLPQKVAEKLDEIYVAGLVAHSDLDERAIEALKEFNEDGALAVLQQFKDSDLSHVQNKSAFLCGVMKTYRQREKQGTKVADSSKGPDEAKIKALLERTGYTLDVTTGQRKYGGPPPDSVYSGQQPSVGTEIFVGKIPRDLFEDELVPLFEKAGPIWDLRLMMDPLTGLNRGYAFVTFCTKEAAQEAVKLYNNHEIRSGKHIGVCISVANNRLFVGSIPKSKTKEQILEEFSKVTEGLTDVILYHQPDDKKKNRGFCFLEYEDHKTAAQARRRLMSGKVKVWGNVGTVEWADPIEDPDPEVMAKVKVLFVRNLANTVTEEILEKAFSQFGKLERVKKLKDYAFIHFDERDGAVKAMEEMNGKDLEGENIEIVFAKPPDQKRKERKAQRQAAKNQMYDDYYYYGPPHMPPPTRGRGRGGRGGYGYPPDYYGYEDYYDYYGYDYHNYRGGYEDPYYGYEDFQVGARGRGGRGARGAAPSRGRGAAPPRGRAGYSQRGGPGSARGVRGARGGAQQQRGRGVRGARGGRGGNVGGKRKADGYNQPDSKRRQTNNQNWGSQPIAQQPLQGGDHSGNYGYKSENQEFYQDTFGQQWK
B4: TOMM22 (protein, UniProt Q9NS69 2-142, looked up)
Mitochondrial import receptor …: AAAVAAAGAGEPQSPDELLPKGDAEKPEEELEEDDDEELDETLSERLWGLTEMFPERVRSAAGATFDLSLFVAQKMYRFSRAALWIGTTSFMILVLPVVFETEKLQMEQQQQLQQRQILLGPNTGLSGGMPGALPSLPGKI
B5: SF3A1 (protein, UniProt Q15459 2-793, looked up)
Splicing factor 3A subunit 1: PAGPVQAVPPPPPVPTEPKQPTEEEASSKEDSAPSKPVVGIIYPPPEVRNIVDKTASFVARNGPEFEARIRQNEINNPKFNFLNPNDPYHAYYRHKVSEFKEGKAQEPSAAIPKVMQQQQQTTQQQLPQKVQAQVIQETIVPKEPPPEFEFIADPPSISAFDLDVVKLTAQFVARNGRQFLTQLMQKEQRNYQFDFLRPQHSLFNYFTKLVEQYTKILIPPKGLFSKLKKEAENPREVLDQVCYRVEWAKFQERERKKEEEEKEKERVAYAQIDWHDFVVVETVDFQPNEQGNFPPPTTPEELGARILIQERYEKFGESEEVEMEVESDEEDDKQEKAEEPPSQLDQDTQVQDMDEGSDDEEEGQKVPPPPETPMPPPLPPTPDQVIVRKDYDPKASKPLPPAPAPDEYLVSPITGEKIPASKMQEHMRIGLLDPRWLEQRDRSIREKQSDDEVYAPGLDIESSLKQLAERRTDIFGVEETAIGKKIGEEEIQKPEEKVTWDGHSGSMARTQQAAQANITLQEQIEAIHKAKGLVPEDDTKEKIGPSKPNEIPQQPPPPSSATNIPSSAPPITSVPRPPTMPPPVRTTVVSAVPVMPRPPMASVVRLPPGSVIAPMPPIIHAPRINVVPMPPSAPPIMAPRPPPMIVPTAFVPAPPVAPVPAPAPMPPVHPPPPMEDEPTSKKLKTEDSLMPEEEFLRRNKGPVSIKVQVPNMQDKTEWKLNGQVLVFTLPLTDQVSVIKVKIHEATGMPAGKQKLQYEGIFIKDSNSLAYYNMANGAVIHLALKERGGRKK
B6: HNRNPD (protein, UniProt Q14103 2-355, looked up)
Heterogeneous nuclear …: SEEQFGGDGAAAAATAAVGGSAGEQEGAMVAATQGAAAAAGSGAGTGGGTASGGTEGGSAESEGAKIDASKNEEDEGHSNSSPRHSEAATAQREEWKMFIGGLSWDTTKKDLKDYFSKFGEVVDCTLKLDPITGRSRGFGFVLFKESESVDKVMDQKEHKLNGKVIDPKRAKAMKTKEPVKKIFVGGLSPDTPEEKIREYFGGFGEVESIELPMDNKTNKRRGFCFITFKEEEPVKKIMEKKYHNVGLSKCEIKVAMSKEQYQQQQQWGSRGGFAGRARGRGGGPSQNWNQGYSNYWNQGYGNYGYNSQGYGGYGGYDYTGYNNYYGYGDYSNQQSGYGKVSRRGGHQNSYKPY
B7: NUP107 (protein, UniProt P57740 1-925, looked up)
Nuclear pore complex protein …: MDRSGFGEISSPVIREAEVTRTARKQSAQKRVLLQASQDENFGNTTPRNQVIPRTPSSFRQPFTPTSRSLLRQPDISCILGTGGKSPRLTQSSGFFGNLSMVTNLDDSNWAAAFSSQRSGLFTNTEPHSITEDVTISAVMLREDDPGEAASMSMFSDFLQSFLKHSSSTVFDLVEEYENICGSQVNILSKIVSRATPGLQKFSKTASMLWLLQQEMVTWRLLASLYRDRIQSALEEESVFAVTAVNASEKTVVEALFQRDSLVRQSQLVVDWLESIAKDEIGEFSDNIEFYAKSVYWENTLHTLKQRQLTSYVGSVRPLVTELDPDAPIRQKMPLDDLDREDEVRLLKYLFTLIRAGMTEEAQRLCKRCGQAWRAATLEGWKLYHDPNVNGGTELEPVEGNPYRRIWKISCWRMAEDELFNRYERAIYAALSGNLKQLLPVCDTWEDTVWAYFRVMVDSLVEQEIQTSVATLDETEELPREYLGANWTLEKVFEELQATDKKRVLEENQEHYHIVQKFLILGDIDGLMDEFSKWLSKSRNNLPGHLLRFMTHLILFFRTLGLQTKEEVSIEVLKTYIQLLIREKHTNLIAFYTCHLPQDLAVAQYALFLESVTEFEQRHHCLELAKEADLDVATITKTVVENIRKKDNGEFSHHDLAPALDTGTTEEDRLKIDVIDWLVFDPAQRAEALKQGNAIMRKFLASKKHEAAKEVFVKIPQDSIAEIYNQCEEQGMESPLPAEDDNAIREHLCIRAYLEAHETFNEWFKHMNSVPQKPALIPQPTFTEKVAHEHKEKKYEMDFGIWKGHLDALTADVKEKMYNVLLFVDGGWMVDVREDAKEDHERTHQMVLLRKLCLPMLCFLLHTILHSTGQYQECLQLADMVSSERHKLYLVFSKEELRKLLQKLRESSLMLLDQGLDPLGYEIQL
B8: TKT (protein, UniProt P29401 1-623, looked up)
Transketolase: MESYHKPDQQKLQALKDTANRLRISSIQATTAAGSGHPTSCCSAAEIMAVLFFHTMRYKSQDPRNPHNDRFVLSKGHAAPILYAVWAEAGFLAEAELLNLRKISSDLDGHPVPKQAFTDVATGSLGQGLGAACGMAYTGKYFDKASYRVYCLLGDGELSEGSVWEAMAFASIYKLDNLVAILDINRLGQSDPAPLQHQMDIYQKRCEAFGWHAIIVDGHSVEELCKAFGQAKHQPTAIIAKTFKGRGITGVEDKESWHGKPLPKNMAEQIIQEIYSQIQSKKKILATPPQEDAPSVDIANIRMPSLPSYKVGDKIATRKAYGQALAKLGHASDRIIALDGDTKNSTFSEIFKKEHPDRFIECYIAEQNMVSIAVGCATRNRTVPFCSTFAAFFTRAFDQIRMAAISESNINLCGSHCGVSIGEDGPSQMALEDLAMFRSVPTSTVFYPSDGVATEKAVELAANTKGICFIRTSRPENAIIYNNNEDFQVGQAKVVLKSKDDQVTVIGAGVTLHEALAAAELLKKEKINIRVLDPFTIKPLDRKLILDSARATKGRILTVEDHYYEGGIGEAVSSAVVGEPGITVTHLAVNRVPRSGKPAELLKMFGIDRDAIAQAVRGLITKA

In one data set the test system is mSWI/SNF complexes. Put plainly: mSWI/SNF complex purification with HA-tagged baits and mass spectrometry (peptide counts). Further details: species or system human. The note with it: 293_HA-BRD7: HA-BRD7 bait purification, total peptide count per co-purified protein.
Consider B1, for which the Total was 4.
Same read-out and setting: next, B2: 4; B3: 4.
For the molecule B4, the Total came out at 4.
B5: the Total amounted to 4.
B6 had a Total of 4.
Still for that read-out and setting: next, B7: 5; B8: 4.

Still in this data set, the particulars now being: 293_HA-BRD7: HA-BRD7 bait purification, unique peptide count per co-purified protein.
Take B1: the Unique was 4.
On the same count and under the same terms, in the case of B2 it was 4; in that of B3, 4.
Still for that read-out and setting: next, B4: 4; B5: 4.
Still for that read-out and setting: next, B6: 4; B7: 4.
In the case of B8, the Unique worked out at 4.
